Reference: PubChem BioAssay AID1259405 (NCATS, 2018)
Here is a random part of about 50,000 reagents tested. In the full data, about 4,000 (8%) got an active call. 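Mouse siRNA library applied to hamster cells; one well for each siRNA.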 The numbers tell different reagents against one gene apart.

- Purpose: 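Silenced genes that increase secreted GFP made by CHO cells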 (primary screen)
- Cell system: Chinese hamster CHO-K1 ovary cells with stable secreted eGFP expression
- Reagents: single siRNA against mouse genes, 0.8 pmol siRNA per well (2 µl of 400 nM stock)
- Timing: 3 days
- Read-out: 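Percent of the per-plate non-targeting control median for intracellular GFP per well by laser scanning cytometry and for cell viability by ATP luminescence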
- Reading the numbers: GFP, % of control: higher = more GFP per well, higher productivity; viability (ATP), % of control: higher = more viable cells (more ATP)
- Active means: 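Called active when intracellular GFP, relative to negative control, is at or above 120%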

The opening 9 entries, to show the layout:
| Gene | reagent no. | GFP, % of control | viability (ATP), % of control | Call |
| --- | --- | --- | --- | --- |
| Arnt | 1 | 69.8 | 65.2 | inactive |
| Arnt | 2 | 79.4 | 84.4 | inactive |
| Engase | 1 | 78.9 | 130 | inactive |
| Engase | 2 | 69.4 | 49 | inactive |
| Engase | 3 | 85.1 | 96.6 | inactive |
| Lrrc56 | 1 | 73.8 | 58.2 | inactive |
| Lrrc56 | 2 | 53.1 | 69.7 | inactive |
| Lrrc56 | 3 | 49.7 | 74.6 | inactive |
| Wdr24 | 1 | 75.8 | 62.1 | inactive |

The listing, from the start:
| Gene | reagent no. | GFP, % of control | viability (ATP), % of control | Call |
| --- | --- | --- | --- | --- |
| Arnt | 1 | 69.8 | 65.2 | inactive |
| Arnt | 2 | 79.4 | 84.4 | inactive |
| Engase | 1 | 78.9 | 130 | inactive |
| Engase | 2 | 69.4 | 49 | inactive |
| Engase | 3 | 85.1 | 96.6 | inactive |
| Lrrc56 | 1 | 73.8 | 58.2 | inactive |
| Lrrc56 | 2 | 53.1 | 69.7 | inactive |
| Lrrc56 | 3 | 49.7 | 74.6 | inactive |
| Wdr24 | 1 | 75.8 | 62.1 | inactive |
| Wdr24 | 2 | 80.8 | 64.7 | inactive |
| Wdr24 | 3 | 49.6 | 47.9 | inactive |
| Defb4 | 1 | 63.7 | 67.4 | inactive |
| Defb4 | 2 | 106 | 74.5 | inactive |
| Defb4 | 3 | 77.4 | 72.1 | inactive |
| Nln | 1 | 62.4 | 68.7 | inactive |
| Nln | 2 | 75.4 | 63.9 | inactive |
| Nln | 3 | 27.5 | 31.2 | inactive |
| Fcgbp | 1 | 166 | 109 | active |
| Fcgbp | 2 | 76.8 | 80.3 | inactive |
| Fcgbp | 3 | 116 | 41.5 | inactive |
| Psmd14 | 1 | 193 | 97.8 | active |
| Psmd14 | 2 | 97.5 | 58.1 | inactive |
| Slc16a11 | 1 | 135 | 71.7 | active |
| Slc16a11 | 2 | 90.9 | 42.5 | inactive |
| Slc16a11 | 3 | 104 | 77.4 | inactive |
| Pcnx4 | 1 | 59.1 | 63.3 | inactive |
| Pcnx4 | 2 | 21.4 | 61.3 | inactive |
| Pcnx4 | 3 | 88.8 | 79 | inactive |
| Slc25a19 | 1 | 39.6 | 61.2 | inactive |
| Slc25a19 | 2 | 64.8 | 70 | inactive |
| Slc25a19 | 3 | 79.3 | 72.2 | inactive |
| Dmap1 | 1 | 54.8 | 82.3 | inactive |
| Dmap1 | 2 | 83 | 83.4 | inactive |
| Dmap1 | 3 | 74.8 | 65.4 | inactive |
| Tmprss11g | 1 | 85.6 | 83.7 | inactive |
| Tmprss11g | 2 | 55.7 | 98.9 | inactive |
| Tmprss11g | 3 | 63.8 | 102 | inactive |
| Unc13b | 1 | 106 | 104 | inactive |
| Unc13b | 2 | 81.2 | 69.7 | inactive |
| Unc13b | 3 | 61.7 | 74.6 | inactive |
| Pcdhb8 | 1 | 88.1 | 89.3 | inactive |
| Pcdhb8 | 2 | 120 | 97.5 | inactive |
| H3c1 | 1 | 76.7 | 75.4 | inactive |
| H3c1 | 2 | 74.6 | 95.7 | inactive |
| H3c1 | 3 | 52.2 | 49.1 | inactive |
| Atp6v0d1 | 1 | 44 | 60.9 | inactive |
| Atp6v0d1 | 2 | 66.1 | 70.8 | inactive |
| Atp6v0d1 | 3 | 52.9 | 61.7 | inactive |
| Drd1 | 1 | 132 | 90.7 | active |
| Drd1 | 2 | 53.3 | 84.9 | inactive |
| Drd1 | 3 | 150 | 71.9 | active |
| Dgat1 | 1 | 66 | 86.5 | inactive |
| Dgat1 | 2 | 110 | 140 | inactive |
| Dgat1 | 3 | 76.9 | 105 | inactive |
| Elapor2 | 1 | 67.5 | 75.5 | inactive |
| Elapor2 | 2 | 80.5 | 67.2 | inactive |
| Elapor2 | 3 | 86.1 | 108 | inactive |
| Gabrg3 | 1 | 103 | 61.4 | inactive |
| Gabrg3 | 2 | 87.2 | 71.3 | inactive |
| Gabrg3 | 3 | 73.1 | 73.6 | inactive |
| Gabrg3 | 4 | 64.5 | 66.1 | inactive |
| Gabrg3 | 5 | 98.1 | 69.4 | inactive |
| Gabrg3 | 6 | 39.5 | 49.6 | inactive |
| Epb41 | 1 | 58.3 | 71.2 | inactive |
| Epb41 | 2 | 93.6 | 75.4 | inactive |
| Epb41 | 3 | 77.5 | 88.9 | inactive |
| Crygn | 1 | 112 | 89.2 | inactive |
| Crygn | 2 | 43.1 | 62.9 | inactive |
| Crygn | 3 | 119 | 108 | inactive |
| Isl2 | 1 | 90.3 | 81.1 | inactive |
| Isl2 | 2 | 70.6 | 83 | inactive |
| Isl2 | 3 | 82.8 | 95.2 | inactive |
| Ifit2 | 1 | 83.4 | 79.1 | inactive |
| Ifit2 | 2 | 73.5 | 73.9 | inactive |
| Ifit2 | 3 | 74.7 | 74.3 | inactive |
| Ttk | 1 | 58.8 | 67.4 | inactive |
| Ttk | 2 | 72.1 | 75.2 | inactive |
| Ttk | 3 | 63.4 | 70.8 | inactive |
| Daw1 | 1 | 99.8 | 89.4 | inactive |
| Daw1 | 2 | 24 | 16.5 | inactive |
| Daw1 | 3 | 77.2 | 70.1 | inactive |
| Zrsr2-ps1 | 1 | 58.2 | 74 | inactive |
| Zrsr2-ps1 | 2 | 79.4 | 82.1 | inactive |
| Fbp1 | 1 | 53.5 | 29.2 | inactive |
| Fbp1 | 2 | 62.1 | 72.6 | inactive |
| Fbp1 | 3 | 69.8 | 73 | inactive |
| Tmem68 | 1 | 96.1 | 61.8 | inactive |
| Tmem68 | 2 | 54.2 | 37 | inactive |
| Tmem68 | 3 | 55.9 | 77.9 | inactive |
| Msantd1 | 1 | 36.9 | 69.7 | inactive |
| Msantd1 | 2 | 50.8 | 80.6 | inactive |
| Msantd1 | 3 | 86.8 | 70.7 | inactive |
| Slc60a2a | 1 | 119 | 70.3 | inactive |
| Slc60a2a | 2 | 78.6 | 59.1 | inactive |
| Slc60a2a | 3 | 88.6 | 81.7 | inactive |
| Skint11 | 1 | 69.2 | 41.5 | inactive |
| Skint11 | 2 | 72.1 | 84.9 | inactive |
| Skint11 | 3 | 76.2 | 101 | inactive |
| Rab21 | 1 | 59.5 | 91 | inactive |
| Rab21 | 2 | 95.8 | 90.1 | inactive |
| Rab21 | 3 | 76.3 | 87 | inactive |
| Dppa2 | 1 | 87.7 | 73.5 | inactive |
| Dppa2 | 2 | 56.6 | 73.1 | inactive |
| Dppa2 | 3 | 57.5 | 29.7 | inactive |
| Tmem114 | 1 | 20.9 | 12.6 | inactive |
| Tmem114 | 2 | 52.6 | 25.1 | inactive |
| Tmem114 | 3 | 47.6 | 39.3 | inactive |
